PubChem BioAssay AID1259405 – NCATS | 2018
This is a random part of about 50,000 reagents tested. Over the whole deposit, about 4,000 (8%) got an active call. 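Mouse siRNA library applied to hamster cells; one well for each siRNA.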

Screen: 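Silenced genes that increase secreted GFP made by CHO cells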 (primary screen)
Cells: Chinese hamster CHO-K1 ovary cells with stable secreted eGFP expression
Reagents: single siRNA against mouse genes, 0.8 pmol siRNA per well (2 µl of 400 nM stock)
Timing: 3 days
Measured: 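Percent of the per-plate non-targeting control median for intracellular GFP per well by laser scanning cytometry and for cell viability by ATP luminescence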
Scale: GFP, % of control: higher = more GFP per well, higher productivity; viability (ATP), % of control: higher = more viable cells (more ATP)
Active means: 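a knock-down is called active if GFP reaches 120% or more of non-targeting control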

The opening 4 records, to show the layout:
gene symbol,PubChem SID,"GFP, % of control","viability (ATP), % of control",activity call
Usp16 (GeneID 74112),SID363547538,86.6,80.9,inactive
Usp16 (GeneID 74112),SID363558307,69.8,71.2,inactive
Usp16 (GeneID 74112),SID363560065,71.8,72.1,inactive
Ano4 (GeneID 320091),SID363556323,46.1,49.1,inactive

Results, from the start:
gene symbol,PubChem SID,"GFP, % of control","viability (ATP), % of control",activity call
Usp16 (GeneID 74112),SID363547538,86.6,80.9,inactive
Usp16 (GeneID 74112),SID363558307,69.8,71.2,inactive
Usp16 (GeneID 74112),SID363560065,71.8,72.1,inactive
Ano4 (GeneID 320091),SID363556323,46.1,49.1,inactive
Ano4 (GeneID 320091),SID363586773,47.3,58.1,inactive
Ano4 (GeneID 320091),SID363588881,116,81.4,inactive
Rag2 (GeneID 19374),SID363569647,103,110,inactive
Rag2 (GeneID 19374),SID363577391,80,86.1,inactive
Rag2 (GeneID 19374),SID363578799,76.9,77.1,inactive
Gemin7 (GeneID 69731),SID363540100,70.5,63.3,inactive
Gemin7 (GeneID 69731),SID363561401,31.6,45.8,inactive
Gemin7 (GeneID 69731),SID363564437,64.5,70.5,inactive
Slc52a2 (GeneID 52710),SID363581938,87.2,67.8,inactive
Slc52a2 (GeneID 52710),SID363589432,74.6,39.3,inactive
Adam5 (GeneID 11499),SID363547220,87.8,91.3,inactive
Adam5 (GeneID 11499),SID363557989,29.7,32.7,inactive
Adam5 (GeneID 11499),SID363559747,71.2,82.5,inactive
Akip1 (GeneID 57373),SID363540202,71.8,85.8,inactive
Akip1 (GeneID 57373),SID363541954,75.1,122,inactive
Akip1 (GeneID 57373),SID363566870,177,78.3,active
Clic3 (GeneID 69454),SID363574552,37.3,58.2,inactive
Clic3 (GeneID 69454),SID363575608,66.1,71,inactive
Clic3 (GeneID 69454),SID363580184,89.1,103,inactive
Nadk (GeneID 192185),SID363571000,65.4,87.2,inactive
Jam2 (GeneID 67374),SID363555280,85,67.5,inactive
Jam2 (GeneID 67374),SID363563941,133,65.7,active
Jam2 (GeneID 67374),SID363587487,91.3,105,inactive
Vmn1r28 (GeneID 171198),SID363556710,88.2,58.8,inactive
Vmn1r28 (GeneID 171198),SID363563614,108,65.6,inactive
Vmn1r28 (GeneID 171198),SID363587160,67.1,88.7,inactive
Oma1 (GeneID 67013),SID363569146,86.1,85,inactive
Oma1 (GeneID 67013),SID363583578,73.2,79.5,inactive
Tmod3 (GeneID 50875),SID363541294,63.9,67.8,inactive
Tmod3 (GeneID 50875),SID363555921,72.3,45.8,inactive
Tmod3 (GeneID 50875),SID363566210,41.6,47.2,inactive
Thoc3 (GeneID 73666),SID363556523,64.1,82.7,inactive
Thoc3 (GeneID 73666),SID363586973,99.9,87.4,inactive
Thoc3 (GeneID 73666),SID363589081,110,142,inactive
Pakap (GeneID 677884),SID363546566,96.1,72.2,inactive
Pakap (GeneID 677884),SID363548322,68.7,73,inactive
Pakap (GeneID 677884),SID363554676,39.1,41,inactive
Pakap (GeneID 677884),SID363560500,51.7,40,inactive
Pakap (GeneID 677884),SID363568123,57.1,37.1,inactive
Pakap (GeneID 677884),SID363586182,82.3,97.4,inactive
Ap1s2 (GeneID 108012),SID363547626,41.9,59.4,inactive
Ap1s2 (GeneID 108012),SID363558395,43.3,48.1,inactive
Ap1s2 (GeneID 108012),SID363560153,81.8,76.2,inactive
Enam (GeneID 13801),SID363553775,60.6,59.6,inactive
Enam (GeneID 13801),SID363561732,66.7,80.2,inactive
Enam (GeneID 13801),SID363565470,51.4,61.1,inactive
Sh3rf2 (GeneID 269016),SID363554805,90.7,92.9,inactive
Sh3rf2 (GeneID 269016),SID363568252,46.9,60.6,inactive
Sh3rf2 (GeneID 269016),SID363586311,76.3,77.8,inactive
Zkscan5 (GeneID 22757),SID363541061,44.6,46.7,inactive
Zkscan5 (GeneID 22757),SID363555688,101,106,inactive
Zkscan5 (GeneID 22757),SID363565977,105,79.9,inactive
Luc7l3 (GeneID 67684),SID363542509,41.1,42.3,inactive
Luc7l3 (GeneID 67684),SID363552000,92.5,69,inactive
Luc7l3 (GeneID 67684),SID363559605,102,77.7,inactive
